Some of the results follow.
What follows are sequences tested against T1, OsSMF1 (Oryza sativa, UniProt Q6ZLB0 1-436) (assay: protein-binding microarray (RPBM); PBS, 2% BSA, 51.3 ng/ul salmon testes DNA, 50 uM zinc acetate, 200 nM TF, 25 C, 1 h; high values mean tight binding). Details: protein: recombinant; tags: N-terminal polyhistidine and DsRed monomer fusion (pET32a); chain copies: 2; label: CyDye5-dUTP incorporated in the synthesized complementary strand; 3' TTTTT single-stranded linker to array surface; dsDNA, one strand shown.
T1 sequence: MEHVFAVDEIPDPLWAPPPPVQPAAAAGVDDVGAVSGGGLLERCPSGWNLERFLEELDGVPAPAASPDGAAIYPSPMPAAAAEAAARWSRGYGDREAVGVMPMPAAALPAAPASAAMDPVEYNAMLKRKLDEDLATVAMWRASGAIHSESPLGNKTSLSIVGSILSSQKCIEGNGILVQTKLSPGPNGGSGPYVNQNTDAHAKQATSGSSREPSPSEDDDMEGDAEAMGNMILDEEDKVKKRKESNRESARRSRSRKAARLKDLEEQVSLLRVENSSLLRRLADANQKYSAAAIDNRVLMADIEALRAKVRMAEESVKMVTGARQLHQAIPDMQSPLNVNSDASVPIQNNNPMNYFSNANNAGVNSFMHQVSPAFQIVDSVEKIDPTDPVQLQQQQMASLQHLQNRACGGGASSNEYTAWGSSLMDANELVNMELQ
Outline: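 In PBS with 2% BSA, salmon testes DNA and 50 µM zinc acetate, 200 nM protein was incubated on a custom Agilent array at 25 °C for 1 h and then washed off. The array had been made double-stranded by primer extension with Cy5-dUTP and blocked with 2% BSA. The proteins were transcription factors fused N-terminally to polyhistidine and DsRed, expressed in E. coli BL21-CodonPlus and purified on Ni–NTA. The binding signal is per-feature fluorescence intensity (arbitrary units) from an Axon 4000B scanner.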

First: AGAGAGAACAATACAAATGATGTGTCAATTACACATCCATCGGAGTCACCTAGTGCAG
Second: AGATGAGCGAAGTGTACCCAACCACGTCAGGTGAATCCATCGGAGTCACCTAGTGCAG
The binding signal of the first is lower: 7190 fluorescence intensity (a.u.) for the first, 8050 fluorescence intensity (a.u.) for the second.

Compared with “GGCTCCGTCAGGGTGATGTCGCCCCTTCGTCAATTTGTAACGGAGTCACCTAGTGCAG”, “CTATGTTTTACACTTACACTCCTATCAAAATCCTACGTTTCGGAGTCACCTAGTGCAG” is higher in binding signal: 4500 fluorescence intensity (a.u.) for the first, 22600 fluorescence intensity (a.u.) for the second.

Compared with “GACTTGTCCAACAAAATGTCCAACTCGCCACGTATAAATACGGAGTCACCTAGTGCAG”, “CGCCACATGCTTCTGCTCACGTAGTGTAGTGGCGGTGGAACGGAGTCACCTAGTGCAG” is lower in binding signal: 4500 fluorescence intensity (a.u.) for the first, 3550 fluorescence intensity (a.u.) for the second.

Compared with “CCGCCTCCGCCTCCGCCTCCACCCACCACCACCACCGCCGCGGAGTCACCTAGTGCAG”, “GTTTCAAGAACACAATGATGAGCTGTACCATCATCAATTGCGGAGTCACCTAGTGCAG” is lower in binding signal: 3870 fluorescence intensity (a.u.) for the first, 3180 fluorescence intensity (a.u.) for the second.

Going from “TGCAGCTTACGTGTTGGCCCATATTTGGTTATGTTCGGGCCGGAGTCACCTAGTGCAG” to “TACATGCCCAGGTGCGGTACCCGTTGCCTGGTCAGGCTGGCGGAGTCACCTAGTGCAG”, the binding signal falls from 6440 fluorescence intensity (a.u.) to 4000 fluorescence intensity (a.u.).

Compared with “GTTCCCGGCCACCGCGCACCGTATCGCCGCCGCCGCCGCGCGGAGTCACCTAGTGCAG”, “GGCAGGCGGGACTGGGTTGGGCCGCGCGTCGCGTGGATGACGGAGTCACCTAGTGCAG” is lower in binding signal: 22100 fluorescence intensity (a.u.) for the first, 4520 fluorescence intensity (a.u.) for the second.

First: TCGTTCTCCCGTGGCGAAACGATGGCGTGTGACATGCAGGCGGAGTCACCTAGTGCAG
Second: CCCCTCCACGTCGCTTGCAACTTTTACAAGAGGAAACCGGCGGAGTCACCTAGTGCAG
The binding signal of the first is higher: 4450 fluorescence intensity (a.u.) for the first, 3330 fluorescence intensity (a.u.) for the second.

Going from “TGTTCCACTGTTGTGTGTGTGGCATTCTTGTACTGCATTTCGGAGTCACCTAGTGCAG” to “CTGCTGCGGTGGTGCCTGCGTGGCTGCGTCCCTTGTATCGCGGAGTCACCTAGTGCAG”, the binding signal rises from 3360 fluorescence intensity (a.u.) to 7830 fluorescence intensity (a.u.).

First: CAGCAGCCAGCTCAGCCAGCTAGCTTAGCTAGTCCGCGATCGGAGTCACCTAGTGCAG
Second: CCGGCATTTATTCCGGATCGAGAACCAATTTATTCATATTCGGAGTCACCTAGTGCAG
The binding signal of the first is lower: 5750 fluorescence intensity (a.u.) for the first, 20100 fluorescence intensity (a.u.) for the second.

Going from “CAAGCGCGTGCACACGTGTCCCCTTATCCACCCGGATGTCCGGAGTCACCTAGTGCAG” to “TAAAAGCAAGCCACGCGGGCCGCGAGGCCGCAACGCCGGTCGGAGTCACCTAGTGCAG”, the binding signal falls from 8610 fluorescence intensity (a.u.) to 4020 fluorescence intensity (a.u.).

Compared with “GGCTGCTCTAGTTGGGCCCGCACGCAGGCAAAACAATTGCCGGAGTCACCTAGTGCAG”, “ATTGCCTCGTCCTCGTAGCGCCGTCAGCCGTGTTGCAGGCCGGAGTCACCTAGTGCAG” is higher in binding signal: 3210 fluorescence intensity (a.u.) for the first, 4490 fluorescence intensity (a.u.) for the second.

First: CCCAAGAAACACCCGCAAGTCAAGTCTCGTCATGGGCCTTCGGAGTCACCTAGTGCAG
Second: AGCATGCACCTTGATCACGGGAACGAGCTAGCGAGAGGCACGGAGTCACCTAGTGCAG
The binding signal of the first is higher: 4750 fluorescence intensity (a.u.) for the first, 3720 fluorescence intensity (a.u.) for the second.

Going from “GAAAAGACATATAATACGACGTGTGTTTTATTGCTTAAATCGGAGTCACCTAGTGCAG” to “GCTGGATTCGAGGATGATCTCCATGTCGAAAGCGGCCTCACGGAGTCACCTAGTGCAG”, the binding signal falls from 6320 fluorescence intensity (a.u.) to 3750 fluorescence intensity (a.u.).

Going from “GCAAAAGGGACTCATGAACAGCAAATCAGGGCCAAGTGGCCGGAGTCACCTAGTGCAG” to “TATCCATGCCTAACATTAGACCATCCGTCTTATTTGAAAACGGAGTCACCTAGTGCAG”, the binding signal rises from 3570 fluorescence intensity (a.u.) to 11600 fluorescence intensity (a.u.).

Compared with “CGGCCCATGTTAGTACCTAAGTACATGCGGCTTATATTAGCGGAGTCACCTAGTGCAG”, “TCACAAGTCGTTCCTCTTGTGCTTTTCACCTCGACTTGGCCGGAGTCACCTAGTGCAG” is higher in binding signal: 3810 fluorescence intensity (a.u.) for the first, 25300 fluorescence intensity (a.u.) for the second.

First: GGCTCCCTAAGGTACAGGGACAGGGATGGATTCCGTTGCTCGGAGTCACCTAGTGCAG
Second: GGAGTAGATATTATCACTAGCTAGTCACACGGACACAGTGCGGAGTCACCTAGTGCAG
The binding signal of the first is lower: 3300 fluorescence intensity (a.u.) for the first, 4900 fluorescence intensity (a.u.) for the second.

First: TTTCACTTTTCAGCCATGAGGCTGTCGTCCCTGCTGTTCTCGGAGTCACCTAGTGCAG
Second: CATGCAGTCAATAGTGTGACTGTAACTTAAACGGTCACACCGGAGTCACCTAGTGCAG
The binding signal of the first is higher: 15900 fluorescence intensity (a.u.) for the first, 3750 fluorescence intensity (a.u.) for the second.

First: GCGACTTGGTGGCTCGTACAGCTCACCCTCCTGAAACGAACGGAGTCACCTAGTGCAG
Second: GGGGCTAGTAGCTTGGCCAGCGTGACGAGGCGGAAGCCCCCGGAGTCACCTAGTGCAG
The binding signal of the first is lower: 3680 fluorescence intensity (a.u.) for the first, 5060 fluorescence intensity (a.u.) for the second.

First: ACTTGTCTGGTACATGTGTGCACAAAGATTGTAATTTTGTCGGAGTCACCTAGTGCAG
Second: CCCAGAAACGAAGCCCATTGGGTAAGGACACGCGTCGGCGCGGAGTCACCTAGTGCAG
The binding signal of the first is higher: 19700 fluorescence intensity (a.u.) for the first, 4370 fluorescence intensity (a.u.) for the second.

Compared with “GCTTAATAAATTCGTCTCGCGGTTTAATGTTGGATTCTGTCGGAGTCACCTAGTGCAG”, “GGCCACAACCGTGTCTGCCAACGCCTCTTCCTCCTTGACTCGGAGTCACCTAGTGCAG” is lower in binding signal: 3670 fluorescence intensity (a.u.) for the first, 3660 fluorescence intensity (a.u.) for the second.

Compared with “GCAAAATTTGATGGCATGGCGGCTGAGTTATGTATAGGTGCGGAGTCACCTAGTGCAG”, “CTCGCGTGCGTGTGTGTTGTGCTTTCCAGTGATCTCGCCGCGGAGTCACCTAGTGCAG” is lower in binding signal: 3900 fluorescence intensity (a.u.) for the first, 3670 fluorescence intensity (a.u.) for the second.

From paper PMC7819943, “Rice protein-binding microarrays: a tool to detect cis-acting elements near promoter regions in rice”
